No constants are given. Whether binding was seen depends on the method and setting. Some binding calls cover weakened binding; strength is not graded here.
Target: T1, CD55 (UniProt P08174 35-353, limits assumed)
T1 construct: whole, on cells; also called CD55 on Rituximab resistant Raji cells (RRCL)
T1 sequence (looked up): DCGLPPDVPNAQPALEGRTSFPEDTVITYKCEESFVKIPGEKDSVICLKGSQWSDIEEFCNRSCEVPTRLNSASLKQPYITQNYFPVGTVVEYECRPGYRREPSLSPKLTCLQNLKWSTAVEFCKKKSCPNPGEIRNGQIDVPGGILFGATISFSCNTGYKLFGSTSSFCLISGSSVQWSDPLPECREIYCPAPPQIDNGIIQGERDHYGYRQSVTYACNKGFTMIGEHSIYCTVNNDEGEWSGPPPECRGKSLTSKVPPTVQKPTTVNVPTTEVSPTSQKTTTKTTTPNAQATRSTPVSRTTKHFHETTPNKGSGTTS
Experiment: flow cytometry binding to MDA231 cells at 0.63 µg/mL antibody, Cy3 goat anti-human IgG detection

binding: binds
B1: Anti-CD55 homodimer IgG (CD55 v2) containing the designed VH sequence (SEQ ID NO: 5) and the common VL2 sequence (SEQ ID NO: 7) (antibody, V domains shown)
VH: QVKLQESGGGLVKPGGSLKLSCAASGFTFSGYGMSWIRQTPGKRLEWVATINSGGSYTYYSDSVKGRFTISRDNVKNTLYLQMSSLKSEDTAMYYCARRNGTLYYYLMDYWGRGTLVTVSS
VL: QSALTQPASVSGSPGQSITISCTGTSSDVGGYNYVSWYQQHPGKAPKLMIYDVSNRPSGVSNRFSGSKSGNTASLTISGLQAEDEADYYCSSYTSSSTRIFGGGTKVTVLR
